This data set deals with La RRM1+2 K200R/K208R (human) (UniProt P05455). Description: EMSA. The conditions noted are these: SUMO-WT or SUMO-GA reaction, bound only weakly, no enhancement; L37/L22 EMSA: 1x binding buffer (from 2x: 3 mM MgCl2, 300 mM NaCl, 1 mM EDTA, 0.1% Nonidet P-40), i.e. 1.5 mM MgCl2, 150 mM NaCl, 0.5 mM EDTA, 0.05% NP-40; pH not stated; recombinant protein; residues 114-326; protein details: His6 (pET28b); label: 3'-Cy3. (In EMSA bound probe runs differently from free probe, usually more slowly.)

The chains behind the UniProt entries cited, without tags or fusion partners. Residues count along the entry.
UniProt P05455, 114-326 K200R/K208R: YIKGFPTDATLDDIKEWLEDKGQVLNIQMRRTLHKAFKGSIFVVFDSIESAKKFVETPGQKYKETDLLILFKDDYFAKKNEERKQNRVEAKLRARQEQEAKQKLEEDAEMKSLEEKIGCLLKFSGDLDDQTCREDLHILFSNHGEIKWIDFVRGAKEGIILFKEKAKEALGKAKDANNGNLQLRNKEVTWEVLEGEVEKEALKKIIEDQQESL

The comparison behind a weaker result is the experiment's own reference, which may not be listed here.

“CUCCUCUGCCGCCAUGGCUCCUGUGAAAAAGCUUGUG [L22 TOP RNA]”: the binding result is reported as “binds more weakly”. On to “UUCCGGUCUCUUUGGCCUCGCCGGUAGAAGCAAGAUG [L37 TOP RNA]”, for which the binding result is recorded as “binds more weakly”.

The values are drawn from paper PMC4880191.
